According to publication PMC10295924:
Results are given in words; binding and its absence hold for the method and conditions named. Binding seen in cells or lysates may run through a third protein. For part of these data: Binding calls can cover weak binding; strength is not graded here.

Legend:
Test in all cases: pull-down; HEK293T cells co-transfected with MYC-LEF1 (or its mutants) and SFB-tagged DUB (or OTUD7B mutants); SFB protein pulled down from lysate with S-protein beads; immunoblot with anti-MYC and anti-FLAG
SFB-USP26 (human) = target: T1, SFB-USP26 (human) (UniProt Q9BXU7)
T1 sequence: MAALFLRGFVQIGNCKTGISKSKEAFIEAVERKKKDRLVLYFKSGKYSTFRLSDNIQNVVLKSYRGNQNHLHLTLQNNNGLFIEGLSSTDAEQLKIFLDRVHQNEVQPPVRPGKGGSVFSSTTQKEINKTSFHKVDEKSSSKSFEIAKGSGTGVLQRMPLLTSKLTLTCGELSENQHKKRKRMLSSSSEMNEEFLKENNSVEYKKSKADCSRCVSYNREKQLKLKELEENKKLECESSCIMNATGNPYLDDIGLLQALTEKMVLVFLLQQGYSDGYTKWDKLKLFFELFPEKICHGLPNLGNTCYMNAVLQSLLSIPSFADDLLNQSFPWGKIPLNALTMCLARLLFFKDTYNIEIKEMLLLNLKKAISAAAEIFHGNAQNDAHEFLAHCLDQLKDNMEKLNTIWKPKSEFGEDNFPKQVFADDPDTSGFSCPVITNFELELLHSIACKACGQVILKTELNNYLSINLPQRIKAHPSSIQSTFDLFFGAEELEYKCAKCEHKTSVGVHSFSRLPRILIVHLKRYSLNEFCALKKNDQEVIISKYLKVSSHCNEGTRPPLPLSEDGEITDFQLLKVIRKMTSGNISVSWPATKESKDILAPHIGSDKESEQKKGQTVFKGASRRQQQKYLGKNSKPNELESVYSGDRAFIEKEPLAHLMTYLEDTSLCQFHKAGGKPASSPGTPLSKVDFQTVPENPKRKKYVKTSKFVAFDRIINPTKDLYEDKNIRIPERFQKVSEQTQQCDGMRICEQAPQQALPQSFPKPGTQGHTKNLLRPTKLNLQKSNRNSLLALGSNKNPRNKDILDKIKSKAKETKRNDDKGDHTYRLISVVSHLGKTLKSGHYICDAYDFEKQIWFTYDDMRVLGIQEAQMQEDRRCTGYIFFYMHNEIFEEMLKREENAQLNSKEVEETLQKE

SFB-USP42 (human) = target: T2, SFB-USP42 (human) (UniProt Q9H9J4)
T2 sequence: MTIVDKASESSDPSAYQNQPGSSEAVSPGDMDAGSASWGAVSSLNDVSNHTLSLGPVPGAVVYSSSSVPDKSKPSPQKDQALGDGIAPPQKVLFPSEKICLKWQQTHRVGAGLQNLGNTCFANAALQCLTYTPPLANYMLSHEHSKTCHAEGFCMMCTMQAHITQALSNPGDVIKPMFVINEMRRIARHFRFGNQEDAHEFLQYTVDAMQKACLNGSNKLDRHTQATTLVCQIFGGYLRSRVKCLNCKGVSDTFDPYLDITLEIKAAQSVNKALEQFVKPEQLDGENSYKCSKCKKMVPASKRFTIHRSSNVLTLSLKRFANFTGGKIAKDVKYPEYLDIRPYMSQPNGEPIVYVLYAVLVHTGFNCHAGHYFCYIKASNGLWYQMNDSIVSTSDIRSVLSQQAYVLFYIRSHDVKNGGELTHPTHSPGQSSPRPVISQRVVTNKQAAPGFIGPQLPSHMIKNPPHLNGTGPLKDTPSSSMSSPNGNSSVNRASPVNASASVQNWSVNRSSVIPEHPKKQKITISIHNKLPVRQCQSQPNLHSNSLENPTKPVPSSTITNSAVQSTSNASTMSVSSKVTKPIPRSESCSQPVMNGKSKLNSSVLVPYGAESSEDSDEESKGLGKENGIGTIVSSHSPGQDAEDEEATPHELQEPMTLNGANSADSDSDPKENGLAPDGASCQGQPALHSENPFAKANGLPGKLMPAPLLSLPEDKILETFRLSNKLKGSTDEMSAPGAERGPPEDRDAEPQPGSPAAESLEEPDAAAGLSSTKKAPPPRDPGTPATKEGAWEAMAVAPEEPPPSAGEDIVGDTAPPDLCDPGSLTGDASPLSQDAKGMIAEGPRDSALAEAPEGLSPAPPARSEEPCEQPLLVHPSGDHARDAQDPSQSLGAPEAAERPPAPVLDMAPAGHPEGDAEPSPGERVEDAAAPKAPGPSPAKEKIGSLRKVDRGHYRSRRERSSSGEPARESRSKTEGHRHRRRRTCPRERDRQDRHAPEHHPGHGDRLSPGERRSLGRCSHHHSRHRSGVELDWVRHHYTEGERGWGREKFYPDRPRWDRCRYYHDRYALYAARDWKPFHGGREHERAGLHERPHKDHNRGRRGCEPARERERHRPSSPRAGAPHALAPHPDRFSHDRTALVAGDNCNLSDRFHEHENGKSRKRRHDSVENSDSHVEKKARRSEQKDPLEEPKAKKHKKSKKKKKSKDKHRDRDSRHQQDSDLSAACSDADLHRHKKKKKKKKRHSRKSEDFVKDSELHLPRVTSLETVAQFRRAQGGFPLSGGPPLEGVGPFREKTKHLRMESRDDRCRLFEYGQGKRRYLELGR

SFB-USP36 (human) = target: T3, SFB-USP36 (human) (UniProt Q9P275)
T3 sequence: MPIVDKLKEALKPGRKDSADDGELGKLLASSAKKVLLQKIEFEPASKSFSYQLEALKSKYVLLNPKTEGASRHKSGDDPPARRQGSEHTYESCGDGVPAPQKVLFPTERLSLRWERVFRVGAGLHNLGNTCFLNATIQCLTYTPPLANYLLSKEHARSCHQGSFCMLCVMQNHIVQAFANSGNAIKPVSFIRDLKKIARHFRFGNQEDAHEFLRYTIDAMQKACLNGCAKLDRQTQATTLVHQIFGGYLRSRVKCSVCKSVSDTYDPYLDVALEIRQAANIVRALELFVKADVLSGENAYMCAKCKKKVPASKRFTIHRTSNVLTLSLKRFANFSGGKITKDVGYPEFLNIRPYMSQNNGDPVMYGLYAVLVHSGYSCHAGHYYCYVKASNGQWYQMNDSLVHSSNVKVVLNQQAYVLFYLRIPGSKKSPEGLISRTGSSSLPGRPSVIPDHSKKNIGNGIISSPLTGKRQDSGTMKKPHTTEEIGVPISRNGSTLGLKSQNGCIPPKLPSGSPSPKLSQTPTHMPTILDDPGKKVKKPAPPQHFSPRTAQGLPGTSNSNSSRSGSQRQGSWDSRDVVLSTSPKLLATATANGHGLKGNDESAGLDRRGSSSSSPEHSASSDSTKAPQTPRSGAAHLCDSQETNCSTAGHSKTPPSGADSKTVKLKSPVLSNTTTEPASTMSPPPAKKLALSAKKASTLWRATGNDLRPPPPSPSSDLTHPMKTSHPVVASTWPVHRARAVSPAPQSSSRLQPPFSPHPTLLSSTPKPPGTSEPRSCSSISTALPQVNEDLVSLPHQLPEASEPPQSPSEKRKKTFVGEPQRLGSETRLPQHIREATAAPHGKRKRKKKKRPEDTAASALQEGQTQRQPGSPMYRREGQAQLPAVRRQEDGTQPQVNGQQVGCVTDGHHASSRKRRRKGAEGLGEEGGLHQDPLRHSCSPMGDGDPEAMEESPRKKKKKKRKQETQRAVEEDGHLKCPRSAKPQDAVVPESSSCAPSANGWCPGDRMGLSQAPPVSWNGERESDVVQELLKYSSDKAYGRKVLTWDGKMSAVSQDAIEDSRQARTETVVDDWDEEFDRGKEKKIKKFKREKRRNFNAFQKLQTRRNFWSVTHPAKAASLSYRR

With “MYC-LEF1 (Lymphoid enhancer-binding factor 1), full length (human)” the binding (SFB-USP26 (human)) was “no binding”, the binding (SFB-USP42 (human)) was “no binding” and the binding (SFB-USP36 (human)) was “binds”.
